From ChEMBL document CHEMBL4725494 (ACS Med Chem Lett, 2020)

The chains behind the UniProt entries cited, without tags or fusion partners. Where a name states a change or a piece, a line headed by the entry shows the natural chain unless it says otherwise.
UniProt Q13547, whole entry: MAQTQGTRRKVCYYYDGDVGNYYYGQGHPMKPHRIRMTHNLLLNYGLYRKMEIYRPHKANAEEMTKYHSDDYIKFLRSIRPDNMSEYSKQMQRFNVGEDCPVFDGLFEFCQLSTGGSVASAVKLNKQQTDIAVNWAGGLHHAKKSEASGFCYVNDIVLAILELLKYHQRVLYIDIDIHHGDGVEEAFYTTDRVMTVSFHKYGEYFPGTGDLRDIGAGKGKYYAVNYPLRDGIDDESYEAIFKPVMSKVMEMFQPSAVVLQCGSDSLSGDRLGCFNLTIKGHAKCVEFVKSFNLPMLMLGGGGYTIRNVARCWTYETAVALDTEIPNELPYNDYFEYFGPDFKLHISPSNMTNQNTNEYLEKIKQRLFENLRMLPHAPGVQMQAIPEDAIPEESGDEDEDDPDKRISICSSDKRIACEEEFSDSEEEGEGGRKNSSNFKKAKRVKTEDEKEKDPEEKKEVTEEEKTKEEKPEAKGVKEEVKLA
UniProt Q12809: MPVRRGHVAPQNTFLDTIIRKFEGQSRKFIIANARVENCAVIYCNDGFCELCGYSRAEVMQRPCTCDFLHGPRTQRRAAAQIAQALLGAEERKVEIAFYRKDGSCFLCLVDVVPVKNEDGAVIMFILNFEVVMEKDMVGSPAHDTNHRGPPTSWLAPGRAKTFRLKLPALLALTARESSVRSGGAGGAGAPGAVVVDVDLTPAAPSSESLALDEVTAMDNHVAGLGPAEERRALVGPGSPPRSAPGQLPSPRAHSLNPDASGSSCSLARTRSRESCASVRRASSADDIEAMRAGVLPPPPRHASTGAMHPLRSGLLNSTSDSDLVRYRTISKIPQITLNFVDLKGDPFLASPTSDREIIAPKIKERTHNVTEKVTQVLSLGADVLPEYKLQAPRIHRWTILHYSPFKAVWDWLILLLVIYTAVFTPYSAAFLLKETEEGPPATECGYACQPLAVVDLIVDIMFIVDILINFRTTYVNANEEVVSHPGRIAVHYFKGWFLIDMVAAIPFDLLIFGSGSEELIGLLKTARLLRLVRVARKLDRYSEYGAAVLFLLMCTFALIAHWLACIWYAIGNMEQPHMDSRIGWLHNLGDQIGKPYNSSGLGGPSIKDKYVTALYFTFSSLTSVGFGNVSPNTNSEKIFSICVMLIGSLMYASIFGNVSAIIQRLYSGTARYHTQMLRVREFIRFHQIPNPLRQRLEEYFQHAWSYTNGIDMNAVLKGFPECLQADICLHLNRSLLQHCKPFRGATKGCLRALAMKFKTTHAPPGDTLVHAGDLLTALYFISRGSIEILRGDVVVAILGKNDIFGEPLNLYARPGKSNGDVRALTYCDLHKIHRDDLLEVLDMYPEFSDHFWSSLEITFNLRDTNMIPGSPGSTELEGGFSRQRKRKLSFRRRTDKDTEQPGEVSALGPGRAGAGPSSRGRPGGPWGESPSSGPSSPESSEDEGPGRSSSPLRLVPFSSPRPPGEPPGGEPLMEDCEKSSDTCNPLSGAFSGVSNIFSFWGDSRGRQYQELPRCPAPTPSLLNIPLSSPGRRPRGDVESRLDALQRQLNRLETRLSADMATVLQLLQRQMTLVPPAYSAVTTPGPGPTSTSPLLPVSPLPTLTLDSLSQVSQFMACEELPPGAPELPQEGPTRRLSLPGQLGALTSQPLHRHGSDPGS

Tests used:
Histone deacetylase 1 = Histone deacetylase 1 (Homo sapiens, UniProt Q13547); assay: biochemical
in vivo [1] = conditions: Wistar-Han, rat, iv, 0.5 mg/kg
[2] = target: Voltage-gated inwardly rectifying potassium channel KCNH2 (Homo sapiens, UniProt Q12809)
in vivo [3] = conditions: Wistar-Han, rat, iv, 0.5 mg/kg; remark: listed apart in the source
in vivo [4] = conditions: Wistar-Han, rat, iv, 0.5 mg/kg; remark: listed apart in the source
in vivo [5] = conditions: Wistar-Han, rat, iv, 0.5 mg/kg; remark: listed apart in the source
[6] = target: T1, Protein deacetylase HDAC6 (Homo sapiens, UniProt Q9UBN7)
T1 sequence (Q9UBN7 whole entry): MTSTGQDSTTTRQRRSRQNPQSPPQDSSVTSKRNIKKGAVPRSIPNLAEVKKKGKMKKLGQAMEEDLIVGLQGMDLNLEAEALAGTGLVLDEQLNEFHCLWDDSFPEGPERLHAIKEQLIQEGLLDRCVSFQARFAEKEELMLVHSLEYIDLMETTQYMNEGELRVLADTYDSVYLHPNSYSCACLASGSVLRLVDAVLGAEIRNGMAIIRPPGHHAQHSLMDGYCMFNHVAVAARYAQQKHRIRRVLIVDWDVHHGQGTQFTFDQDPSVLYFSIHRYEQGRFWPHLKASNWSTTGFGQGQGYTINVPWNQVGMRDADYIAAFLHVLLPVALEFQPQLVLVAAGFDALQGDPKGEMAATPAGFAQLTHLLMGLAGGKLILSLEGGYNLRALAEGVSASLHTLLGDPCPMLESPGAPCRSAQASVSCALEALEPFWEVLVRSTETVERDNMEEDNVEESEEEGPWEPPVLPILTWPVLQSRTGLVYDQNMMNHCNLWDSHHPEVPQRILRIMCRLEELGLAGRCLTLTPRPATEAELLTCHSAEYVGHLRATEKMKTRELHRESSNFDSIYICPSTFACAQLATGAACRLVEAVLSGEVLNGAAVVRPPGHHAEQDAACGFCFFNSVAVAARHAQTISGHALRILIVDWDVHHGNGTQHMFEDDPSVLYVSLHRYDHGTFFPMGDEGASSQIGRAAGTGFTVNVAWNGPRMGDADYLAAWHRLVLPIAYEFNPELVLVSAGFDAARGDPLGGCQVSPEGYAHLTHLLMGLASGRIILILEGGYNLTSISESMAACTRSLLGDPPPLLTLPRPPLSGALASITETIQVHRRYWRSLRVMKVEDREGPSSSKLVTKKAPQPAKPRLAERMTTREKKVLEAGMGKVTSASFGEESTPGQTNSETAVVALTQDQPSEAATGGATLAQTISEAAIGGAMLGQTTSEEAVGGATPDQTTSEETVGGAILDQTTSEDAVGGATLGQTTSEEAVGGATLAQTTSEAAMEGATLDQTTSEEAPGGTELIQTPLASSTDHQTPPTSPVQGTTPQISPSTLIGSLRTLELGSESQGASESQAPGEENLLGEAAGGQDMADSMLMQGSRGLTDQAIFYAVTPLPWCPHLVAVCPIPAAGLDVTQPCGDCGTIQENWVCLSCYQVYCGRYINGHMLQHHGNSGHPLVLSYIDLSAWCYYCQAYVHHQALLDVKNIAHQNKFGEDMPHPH

In the case of O=C(N[C@@H](CCCCNC(=O)c1cccc2c1CCC2)c1ncc(-c2ccc3ccccc3c2)[nH]1)c1cncs1, the IC50 (Histone deacetylase 1) is reported as over 45 µM.
COc1nc2ccccc2cc1-c1cnc([C@H](CCCCNC(=O)c2ccccc2SC)NC(=O)c2cncs2)[nH]1 showed an AUC (in vivo [1]) of 0.049 µM·h, an IC50 [2] of 1330 nM and a Vd (in vivo [3]) of 0.86 L/kg. The half-life (in vivo [4]) was 19.2 min, the IC50 (Histone deacetylase 1) was over 45 µM and the clearance (in vivo [5]) was 29 mL/min/kg.
O=C(N[C@@H](CCCCNC(=O)c1ccccc1OCC(F)(F)F)c1ncc(-c2ccc3ccccc3c2)[nH]1)c1cncs1 gave an IC50 (Histone deacetylase 1) of over 45 µM.
Work on O=C(N[C@@H](CCCCNC(=O)c1ccccc1OC(F)(F)F)c1ncc(-c2ccc3ccccc3c2)[nH]1)c1cncs1 yielded an IC50 (Histone deacetylase 1) of over 45 µM.
COc1cccc(O)c1C(=O)NCCCC[C@H](NC(=O)c1cncs1)c1ncc(-c2ccc3ccccc3c2)[nH]1 gave an IC50 [6] of over 45 µM.
Work on N#Cc1ccccc1C(=O)NCCCC[C@H](NC(=O)c1cncs1)c1ncc(-c2ccc3ccccc3c2)[nH]1 yielded an IC50 (Histone deacetylase 1) of over 45 µM.
O=C(N[C@@H](CCCCNC(=O)c1ccccc1Cl)c1ncc(-c2ccc3ccccc3c2)[nH]1)c1cncs1 showed an IC50 (Histone deacetylase 1) of over 45 µM.
COc1nc2ccccc2cc1-c1nnc([C@H](CCCCNC(=O)c2ccccc2SC)NC(=O)c2cncs2)o1 showed an AUC (in vivo [1]) of 0.029 µM·h, a Vd (in vivo [3]) of 1.3 L/kg and a half-life (in vivo [4]) of 21 min. The IC50 (Histone deacetylase 1) was over 45 µM and the clearance (in vivo [5]) was 49 mL/min/kg.
With CCc1ccccc1C(=O)NCCCC[C@H](NC(=O)c1cncs1)c1ncc(-c2ccc3ccccc3c2)[nH]1 the IC50 (Histone deacetylase 1) was over 45 µM.
For CCSc1ccccc1C(=O)NCCCC[C@H](NC(=O)c1cncs1)c1ncc(-c2ccc3ccccc3c2)[nH]1, the IC50 (Histone deacetylase 1) was over 45 µM.
